In the supplement of paper PMC10077471:
In all, about 1,900 compounds were measured (“excess over highest single agent (ExcessHSA) synergy score, 6x6 matrix”: median about -83, lowest 2% from about -370 on). This is one part of the list.

The compounds below were run on NCI-H446 (assay: excess over highest single agent (ExcessHSA) synergy score, 6x6 matrix; higher = less synergy (more negative = stronger synergy)). Details: 72 h; CellTiter-Glo viability.

Row | Compound | excess over highest single agent
1 | COc1cc(Nc2c(C#N)cnc3cc(OCCCN4CCN(C)CC4)c(OC)cc23)c(Cl)cc1Cl + Cc1sc2c(c1C)C(c1ccc(Cl)cc1)=N[C@@H](CC(=O)OC(C)(C)C)c1nnc(C)n1-2 [NCGC00250412-19] | 100
2 | CC(=O)OC[C@H]1O[C@@H]([S-])[C@H](OC(C)=O)[C@@H](OC(C)=O)[C@@H]1OC(C)=O.CCP(CC)CC.[Au+] + Cc1sc2c(c1C)C(c1ccc(Cl)cc1)=N[C@@H](CC(=O)OC(C)(C)C)c1nnc(C)n1-2 [NCGC00250412-19] | -83.2
3 | Cc1ccc(Nc2cc(-c3cccc(N4C(=O)c5ccccc5C4=O)c3)ncn2)cc1NS(C)(=O)=O + Cc1sc2c(c1C)C(c1ccc(Cl)cc1)=N[C@@H](CC(=O)OC(C)(C)C)c1nnc(C)n1-2 [NCGC00250412-19] | 40.6
4 | CCC1(c2ccccc2)C(=O)NCNC1=O + Cc1sc2c(c1C)C(c1ccc(Cl)cc1)=N[C@@H](CC(=O)OC(C)(C)C)c1nnc(C)n1-2 [NCGC00250412-19] | -138
5 | CCCCc1oc2ccc(NS(C)(=O)=O)cc2c1C(=O)c1ccc(OCCCN(CCCC)CCCC)cc1 + Cc1sc2c(c1C)C(c1ccc(Cl)cc1)=N[C@@H](CC(=O)OC(C)(C)C)c1nnc(C)n1-2 [NCGC00250412-19] | -6.2
6 | CN1CCN(C(=O)O[C@H]2c3nccnc3C(=O)N2c2ccc(Cl)cn2)CC1 + Cc1sc2c(c1C)C(c1ccc(Cl)cc1)=N[C@@H](CC(=O)OC(C)(C)C)c1nnc(C)n1-2 [NCGC00250412-19] | 45.1
7 | Oc1c(Cl)cc(Cl)c2cccnc12 + Cc1sc2c(c1C)C(c1ccc(Cl)cc1)=N[C@@H](CC(=O)OC(C)(C)C)c1nnc(C)n1-2 [NCGC00250412-19] | -98.5
8 | COc1cc2ncnc(Nc3cccc(Br)c3)c2cc1OC + Cc1sc2c(c1C)C(c1ccc(Cl)cc1)=N[C@@H](CC(=O)OC(C)(C)C)c1nnc(C)n1-2 [NCGC00250412-19] | -142
9 | CC(=O)SC[C@@H](C)C(=O)N1CCC[C@H]1C(=O)N[C@@H](Cc1ccccc1)C(=O)O + Cc1sc2c(c1C)C(c1ccc(Cl)cc1)=N[C@@H](CC(=O)OC(C)(C)C)c1nnc(C)n1-2 [NCGC00250412-19] | -183
10 | C=CC(=O)Nc1cccc(Oc2nc(Nc3ccc(N4CCN(C)CC4)cc3)ncc2Cl)c1 + Cc1sc2c(c1C)C(c1ccc(Cl)cc1)=N[C@@H](CC(=O)OC(C)(C)C)c1nnc(C)n1-2 [NCGC00250412-19] | -333
11 | O=C(N[C@@H](COc1ccc2[nH]c(=O)[nH]c2c1)c1ccccc1)c1cccn(Cc2ccc(F)c(F)c2)c1=O + Cc1sc2c(c1C)C(c1ccc(Cl)cc1)=N[C@@H](CC(=O)OC(C)(C)C)c1nnc(C)n1-2 [NCGC00250412-19] | -158
12 | C[C@@](Cc1ccc(O)c(O)c1)(NN)C(=O)O + Cc1sc2c(c1C)C(c1ccc(Cl)cc1)=N[C@@H](CC(=O)OC(C)(C)C)c1nnc(C)n1-2 [NCGC00250412-19] | 12
13 | Nc1ncnc2c1ncn2[C@@H]1O[C@H](CO)[C@@H](O)[C@@H]1O + Cc1sc2c(c1C)C(c1ccc(Cl)cc1)=N[C@@H](CC(=O)OC(C)(C)C)c1nnc(C)n1-2 [NCGC00250412-19] | -96.1
14 | CCCN1CCOC2c3cc(O)ccc3OCC21 (centres undefined) + Cc1sc2c(c1C)C(c1ccc(Cl)cc1)=N[C@@H](CC(=O)OC(C)(C)C)c1nnc(C)n1-2 [NCGC00250412-19] | 11
15 | O=C1CC[C@@]2(O)[C@H]3Cc4ccc(O)c5c4[C@@]2(CCN3CC2CC2)[C@H]1O5 + Cc1sc2c(c1C)C(c1ccc(Cl)cc1)=N[C@@H](CC(=O)OC(C)(C)C)c1nnc(C)n1-2 [NCGC00250412-19] | 14.6
16 | CC(C)c1ccccc1Cc1cc(C(=O)Nc2ccc(S(=O)(=O)c3ccccc3C(C)(C)C)cc2)c(O)c(O)c1O + Cc1sc2c(c1C)C(c1ccc(Cl)cc1)=N[C@@H](CC(=O)OC(C)(C)C)c1nnc(C)n1-2 [NCGC00250412-19] | -282
17 | O=C(O)CCc1ccc(NCc2cccc(Oc3ccccc3)c2)cc1 + Cc1sc2c(c1C)C(c1ccc(Cl)cc1)=N[C@@H](CC(=O)OC(C)(C)C)c1nnc(C)n1-2 [NCGC00250412-19] | -84
18 | Cc1cc2nc3c(=O)[nH]c(=O)nc-3n(C[C@H](O)[C@H](O)[C@H](O)CO)c2cc1C + Cc1sc2c(c1C)C(c1ccc(Cl)cc1)=N[C@@H](CC(=O)OC(C)(C)C)c1nnc(C)n1-2 [NCGC00250412-19] | 52.8
19 | CCCOc1ccc2[nH]c(NC(=O)OC)nc2c1 + Cc1sc2c(c1C)C(c1ccc(Cl)cc1)=N[C@@H](CC(=O)OC(C)(C)C)c1nnc(C)n1-2 [NCGC00250412-19] | -107
20 | CC(C)(C)c1cc(C=C(C#N)C#N)cc(Br)c1O + Cc1sc2c(c1C)C(c1ccc(Cl)cc1)=N[C@@H](CC(=O)OC(C)(C)C)c1nnc(C)n1-2 [NCGC00250412-19] | 66.7

Row | Compound | excess over highest single agent
21 | CC(=O)OCCN1C(=O)c2c(C)nc3ccc(S(=O)(=O)N4CCOCC4)cc3c2C1=O + Cc1sc2c(c1C)C(c1ccc(Cl)cc1)=N[C@@H](CC(=O)OC(C)(C)C)c1nnc(C)n1-2 [NCGC00250412-19] | -159
22 | CCS(=O)(=O)N1CC(CC#N)(n2cc(-c3ncnc4[nH]ccc34)cn2)C1 + Cc1sc2c(c1C)C(c1ccc(Cl)cc1)=N[C@@H](CC(=O)OC(C)(C)C)c1nnc(C)n1-2 [NCGC00250412-19] | 16.4
23 | Nc1nc(NCCNc2ncc(-n3ccnc3)c(-c3ccc(Cl)cc3Cl)n2)ccc1[N+](=O)[O-] + Cc1sc2c(c1C)C(c1ccc(Cl)cc1)=N[C@@H](CC(=O)OC(C)(C)C)c1nnc(C)n1-2 [NCGC00250412-19] | 4.27
24 | CC(C)[C@]12O[C@H]1[C@@H]1O[C@]13[C@]1(O[C@H]1C[C@H]1C4=C(CC[C@@]13C)C(=O)OC4)[C@@H]2O + Cc1sc2c(c1C)C(c1ccc(Cl)cc1)=N[C@@H](CC(=O)OC(C)(C)C)c1nnc(C)n1-2 [NCGC00250412-19] | -197
25 | Nc1nccc(Oc2ccc(NC(=O)c3c[nH]cc(-c4ccc(F)cc4)c3=O)cc2F)c1Cl + Cc1sc2c(c1C)C(c1ccc(Cl)cc1)=N[C@@H](CC(=O)OC(C)(C)C)c1nnc(C)n1-2 [NCGC00250412-19] | 62.6
26 | COc1cccc2c(NCc3ccccc3)nc(-n3c(N)nc4ccccc43)nc12 + Cc1sc2c(c1C)C(c1ccc(Cl)cc1)=N[C@@H](CC(=O)OC(C)(C)C)c1nnc(C)n1-2 [NCGC00250412-19] | -82.6
27 | NC(=O)Nc1cc(-c2cccc(F)c2)sc1C(=O)N[C@H]1CCCNC1 + Cc1sc2c(c1C)C(c1ccc(Cl)cc1)=N[C@@H](CC(=O)OC(C)(C)C)c1nnc(C)n1-2 [NCGC00250412-19] | 1.35
28 | O=C(c1ccc(F)cc1)C1CCN(CCn2c(=O)[nH]c3ccccc3c2=O)CC1 + Cc1sc2c(c1C)C(c1ccc(Cl)cc1)=N[C@@H](CC(=O)OC(C)(C)C)c1nnc(C)n1-2 [NCGC00250412-19] | -13.7
29 | C[C@H]1[C@H](C)CC[C@]2(C(=O)O)CC[C@]3(C)C(=CC[C@@H]4[C@@]5(C)CC[C@H](O)C(C)(C)[C@@H]5CC[C@]43C)[C@H]12 + Cc1sc2c(c1C)C(c1ccc(Cl)cc1)=N[C@@H](CC(=O)OC(C)(C)C)c1nnc(C)n1-2 [NCGC00250412-19] | -67.1
30 | O=C(NCCCCN1CCOCC1)c1cc2ccccc2o1 + Cc1sc2c(c1C)C(c1ccc(Cl)cc1)=N[C@@H](CC(=O)OC(C)(C)C)c1nnc(C)n1-2 [NCGC00250412-19] | -147
31 | Oc1ccc(-c2ccc(-c3cc(Nc4cccc(CNC5CC5)c4)n[nH]3)cc2)c(O)c1 + Cc1sc2c(c1C)C(c1ccc(Cl)cc1)=N[C@@H](CC(=O)OC(C)(C)C)c1nnc(C)n1-2 [NCGC00250412-19] | 79.8
32 | Nc1nc2c(ncn2COC(CO)CO)c(=O)[nH]1 + Cc1sc2c(c1C)C(c1ccc(Cl)cc1)=N[C@@H](CC(=O)OC(C)(C)C)c1nnc(C)n1-2 [NCGC00250412-19] | -72.2
33 | CC(NC(C)(C)C)C(=O)c1cccc(Cl)c1 (centres undefined) + Cc1sc2c(c1C)C(c1ccc(Cl)cc1)=N[C@@H](CC(=O)OC(C)(C)C)c1nnc(C)n1-2 [NCGC00250412-19] | 19.5
34 | Cc1csc(-c2nnc(Nc3ccc(Oc4ncccc4-c4ccnc(N)n4)cc3)c3ccccc23)c1 + Cc1sc2c(c1C)C(c1ccc(Cl)cc1)=N[C@@H](CC(=O)OC(C)(C)C)c1nnc(C)n1-2 [NCGC00250412-19] | -193
35 | CN(C)C(=N)NC(=N)N + Cc1sc2c(c1C)C(c1ccc(Cl)cc1)=N[C@@H](CC(=O)OC(C)(C)C)c1nnc(C)n1-2 [NCGC00250412-19] | -158
36 | COc1c(C)cnc(Cn2cnc3c(Cl)nc(N)nc32)c1C + Cc1sc2c(c1C)C(c1ccc(Cl)cc1)=N[C@@H](CC(=O)OC(C)(C)C)c1nnc(C)n1-2 [NCGC00250412-19] | -371
37 | COc1ccc2c(Oc3ccc(NC(=O)c4c(C)n(CC(C)(C)O)n(-c5ccccc5)c4=O)nc3)ccnc2c1 + Cc1sc2c(c1C)C(c1ccc(Cl)cc1)=N[C@@H](CC(=O)OC(C)(C)C)c1nnc(C)n1-2 [NCGC00250412-19] | -44.8
38 | c1ccc2c(CCNc3ccc(Nc4ccncc4)cc3)c[nH]c2c1 + Cc1sc2c(c1C)C(c1ccc(Cl)cc1)=N[C@@H](CC(=O)OC(C)(C)C)c1nnc(C)n1-2 [NCGC00250412-19] | -76.1
39 | NCCCCCC(=O)O + Cc1sc2c(c1C)C(c1ccc(Cl)cc1)=N[C@@H](CC(=O)OC(C)(C)C)c1nnc(C)n1-2 [NCGC00250412-19] | -73.9

Given comma-delimited: entries from further up
Row,Compound,excess over highest single agent
35,CN(C)C(=N)NC(=N)N + Cc1sc2c(c1C)C(c1ccc(Cl)cc1)=N[C@@H](CC(=O)OC(C)(C)C)c1nnc(C)n1-2 [NCGC00250412-19],-158
39,NCCCCCC(=O)O + Cc1sc2c(c1C)C(c1ccc(Cl)cc1)=N[C@@H](CC(=O)OC(C)(C)C)c1nnc(C)n1-2 [NCGC00250412-19],-73.9
